In US20260345508A1, “CETYLPYRIDINIUM CHLORIDE HYDRATE-CONTAINING SILICON NANOPARTICLE COMPOSITION AND TECHNOLOGY OF APPLYING SAME” (priority 2022, published 2026):

What was measured:
[1] = system: S. aureus FDA 209P; assay: Antimicrobial activity, broth microdilution MIC, S. aureus FDA 209P; assay type: cell-based, S. aureus FDA 209P (MSSA); conditions: Staphylococcus aureus, FDA209P, MHIIB, 35° C., 20 to 24 hours
Procedure: (§1) • Test purpose: evaluation of antimicrobial activity of Example 1 against the following test strains • Test strain: S. aureus FDA 209P (MSSA), E. coli ATCC 8739, S. aureus MU-3 (MRSA), P. aeruginosa ATCC 27853 • Test method: broth microdilution method according to Clinical Laboratory Standards Institute • (i) Each strain stored at −80° C. is applied to MHII agar and cultured at 35° C. for 16 to 20 hours, • (ii) The cultured bacteria are suspended in MHIIB to McFarland 0.5, and the suspensions are diluted 100-fold and adjusted to a bacterial count of about 10^6 CFU/mL with MHIIB. • (iii) Each compound stock solution is prepared with MHIIB to the top dose shown in the next section, and 2-fold dilution is repeated with MHIIB to prepare compound-containing media. • (iv) Each compound-containing medium in (iii) is dispensed in an amount of 50 μL into a 96-well plate, followed by inoculation with 50 μL of each bacterial liquid in (ii). Culture is performed at 35° C. for 20 to 24 hours. • Determination method: The lowest concentration at which no bacterial growth is observed with the naked eye is regarded as the minimum inhibitory concentration.

[2] = system: E. coli ATCC 8739; assay: Antimicrobial activity, broth microdilution MIC, E. coli ATCC 8739; assay type: cell-based; conditions: Escherichia coli, ATCC8739, MHIIB, 35° C., 20 to 24 hours
Procedure: as §1

[3] = system: S. aureus MU3; assay: Antimicrobial activity, broth microdilution MIC, S. aureus MU3; assay type: cell-based, S. aureus MU-3 (MRSA); conditions: Staphylococcus aureus, MHIIB, 35° C., 20 to 24 hours
Procedure: as §1

[4] = system: P. aeruginosa ATCC 27853; assay: Antimicrobial activity, broth microdilution MIC, P. aeruginosa ATCC 27853; assay type: cell-based; conditions: Pseudomonas aeruginosa, ATCC27853, MHIIB, 35° C., 20 to 24 hours
Procedure: as §1

CCCCCCCCCCCCCCCC[n+]1ccccc1 [CPC, cetylpyridinium chloride hydrate]
MIC [1]: 5 µg/mL | MIC [2]: 200 µg/mL | MIC [3]: 32 µg/mL | MIC [4]: > 1000 µg/mL
